These results are taken from patent publication US10513539B2 (Ruprecht-Karls-Universitat Heidelberg, priority 2011, dated 2019).

This data set is described as follows: general procedure: Fmoc solid-phase peptide synthesis; polystyrene copolymerized with polyoxyethylen; dicyclohexylcarbodiimide, hydroxybenzotriazole, benzotriazil-1-yl-oxytris (dimet).

Regarding KNLSTSNPLGFFPDHQLDPy (SEQ ID NO:21), the final ms purity (conjugation step, Mass Spectrometry) is 97% or higher. For the substance “stearoyl-[K(DOTA)]3-NLSTSNPLGFFPDHQLDP-amide”, under “conjugation step”, the conjugation yield is listed as 55%. Consider “stearoyl-[K(DOTA[Gd])]3-NLSTSNPLGFFPDHQLDP-amide”, for which, where the note is “late stage modification step”, the step yield was found to be 77%.
